Assays:
[1] = system: Caco-2 cells; assay: CLSM subcellular distribution in living Caco-2 cells; format: cell-based, human; settings: undifferentiated Caco-2 cells (Fig. 5), 60 min, Opti-MEM
[2] = system: MA-104 cells; assay: CLSM subcellular distribution in living MA-104 cells; format: cell-based, monkey; settings: 10 min, 20 μM total Arg9, 3 to 10% or 100% fluorescein-labeled, Opti-MEM

Substance	Colocalization of CPP fluorescence with lysotracker ([1]; 10% dilution (2 μM Fluo-Arg9 plus 18 μM Arg9))	Colocalization of CPP fluorescence with lysotracker ([1]; 100% Fluo-Arg9 (20 μM))	Targeting of mitochondria (colocalization with mitotracker) [2]
Ac-K(Fluo)RRRRRRRRR-NH2 [Fluo-Arg9, Arg9 labeled with fluorescein on the side chain of an extra N-terminal lysine]	strong colocalization	never colocalized	–
RRRRRRRRR [Arg9, nona-arginine, nona-arginine cell-penetrating peptide, reference compound]	–	–	not targeted

Source: article PMC4738315, “How to unveil self-quenched fluorophores and subsequently map the subcellular distribution of exogenous peptides” (Scientific Reports, 2016)
